# According to the supplement of paper PMC8256030:
# Several values for one entry are separate records, joined by “and”; a condition that tells them apart may be missing. Equal values may be shown once. Where a name gives a salt, the structure may show the parent alone. The list shows a part of the results. Single values are uncertain here, since repeats match poorly.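 HEK293T cells were given each compound shortly before transfection with a reporter in which red mCherry is followed by the SARS-CoV-2 frameshift element and then GFP in the −1 frame, so GFP appears only after frameshifting.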
# Tested on: HEK293T
# Assay: percent viability (nuclei count) relative to control; higher = more viable cells
# Conditions: 10 µM; 24 h
row,Structure (SMILES),percent viability
1,C[C@H](N)C(=O)N[C@@H](C)P(=O)(O)O [alafosfalin],213%
2,C[S+](CC[C@H](N)C(=O)[O-])C[C@H]1O[C@@H](n2cnc3c(N)ncnc32)[C@H](O)[C@@H]1O (some centres undefined) [S-Adenosylmethionine],189%
3,C[C@H](NC(=O)[C@@H]1CCC(=O)N1)C(=O)N[C@@H](CCCCN)C(=O)N[C@@H](CO)C(=O)N[C@@H](CCC(N)=O)C(=O)NCC(=O)NCC(=O)N[C@@H](CO)C(=O)N[C@@H](CC(N)=O)C(=O)O [nonathymulin],106%
4,C=CCc1ccccc1OCC(O)CNC(C)C (centres undefined),362%
5,CN[C@H](CC(C)C)C(=O)N[C@H]1C(=O)N[C@@H](CC(N)=O)C(=O)N[C@H]2C(=O)N[C@H]3C(=O)N[C@H](C(=O)N[C@H](C(=O)O)c4cc(O)cc(O)c4-c4cc3ccc4O)[C@H](O[C@H]3C[C@](C)(N)[C@@H](O)[C@H](C)O3)c3ccc(c(Cl)c3)Oc3cc2cc(c3O[C@@H]2O[C@H](CO)[C@@H](O)[C@H](O)[C@H]2O[C@H]2C[C@](C)(NCc3ccc(-c4ccc(Cl)cc4)cc3)[C@@H](O)[C@H](C)O2)Oc2ccc(cc2Cl)[C@H]1O [oritavancin],271%
6,CN(C)CC[C@@H](c1ccc(Cl)cc1)c1ccccn1 [dexchlorpheniramine],144%
7,CCN1CCN(C(=O)N[C@@H](C(=O)N[C@@H]2C(=O)N3C(C(=O)O)=C(CSc4nnnn4C)CS[C@H]23)c2ccc(O)cc2)C(=O)C1=O [Cefoperazone acid],178%
8,O=C1c2c(O)ccc(O)c2C(=O)c2c(NCCNCCO)ccc(NCCNCCO)c21 [mitoxantrone],27.7% and 28.6%
9,CC(CN(C)C)CN1c2ccccc2Sc2ccc(C#N)cc21 (centres undefined) [cyamemazine],333%
10,CO[C@@]1(NC(=O)C2SC(=C(C(N)=O)C(=O)O)S2)C(=O)N2C(C(=O)O)=C(CSc3nnnn3C)CS[C@@H]21 (some centres undefined),289%
11,Cc1c(O)cccc1C(=O)N[C@@H](CSc1ccccc1)[C@H](O)CN1C[C@H]2CCCC[C@H]2C[C@H]1C(=O)NC(C)(C)C [Nelfinavir mesylate],224%
12,NS(=O)(=O)c1cc2c(cc1C(F)(F)F)NCNS2(=O)=O [hydroflumethiazide],124%
13,CC(C)(CO)NCC(O)c1ccccc1 (centres undefined) [fepradinol],298%
14,COc1ccc(-n2nc(CCC(=O)N(C)O)cc2-c2ccc(Cl)cc2)cc1 [tepoxalin],158%
15,CC(=O)OCC1=C(C(=O)O)N2C(=O)[C@@H](NC(=O)CSc3ccncc3)[C@H]2SC1 [cefapirin],333%
16,COCCCC/C(=N\OCCN)c1ccc(C(F)(F)F)cc1,147%
17,N#Cc1cc(NC(=O)C(=O)O)c(Cl)c(NC(=O)C(=O)O)c1 [lodoxamide],326%
18,O=C(O)c1cn(C2CC2)c2cc(N3CCNCC3)c(F)cc2c1=O [ciprofloxacin],394% and 134%
19,C[C@H](CCC(=O)O)[C@H]1CC[C@H]2[C@@H]3C(=O)C[C@@H]4CC(=O)CC[C@]4(C)[C@H]3CC(=O)[C@]12C [dehydrocholic acid],90.3%
20,COC(=O)[C@@H](N)Cc1ccc(O)c(O)c1 [melevodopa],156%

# Part of the list above in order of count of non-hydrogen atoms, falling.
row,Structure (SMILES),percent viability
15,CC(=O)OCC1=C(C(=O)O)N2C(=O)[C@@H](NC(=O)CSc3ccncc3)[C@H]2SC1 [cefapirin],333%
6,CN(C)CC[C@@H](c1ccc(Cl)cc1)c1ccccn1 [dexchlorpheniramine],144%
4,C=CCc1ccccc1OCC(O)CNC(C)C (centres undefined),362%

# Following part

row,Structure (SMILES),percent viability
1,CN(C)C/C=C(/c1ccc(Br)cc1)c1cccnc1 [zimeldine],132%
2,CNCCCC1(c2ccccc2)OC(C)(C)c2ccccc21 (centres undefined) [talopram],122%
3,N=C(N)N,152%
4,CCCCC[C@H](O)/C=C/[C@@H]1c2cc(CCCCC(=O)O)n(-c3ccccc3)c2C[C@H]1O [piriprost],221%
5,COc1cc(C(=O)OCCN2CCN(CCCN3c4ccccc4Sc4ccc(Cl)cc43)CC2)cc(OC)c1OC [metofenazate],546%
6,CCCCOC(=O)c1ccc(O)cc1,179%
7,CCCC1(CC(=O)O)OCCc2c1[nH]c1ccccc21 (centres undefined) [prodolic acid],169%
8,O=S(=O)(O)NC1CCCCC1,361%
9,CN(CC(=O)O)C(=N)N [Creatine],207%
10,CCOC(=O)[N-]c1c[n+](N2CCOCC2)no1 [Molsidomine],177%
11,C=C(C#N)C(=O)OCCCC [enbucrilate],139%
12,CCOC(=O)C(C)(C)Oc1ccc(Cl)cc1 [clofibrate],365% and 178%
13,C1CCN2C[C@H]3C[C@H](CN4CCCC[C@@H]34)[C@H]2C1,227%
14,CCCCCCCCOc1ccc(C(=O)c2ccccc2)c(O)c1 [octabenzone],202%
15,C=C[C@H]1CN2CCC1C[C@H]2[C@H](O)c1ccnc2ccc(OC)cc12 (some centres undefined) [Quinine·HCl·2H2O],261%
16,CN1CCN(C2=Nc3ccccc3Oc3ccc(Cl)cc32)CC1,152%
17,CCCCCCCN(CC)CCCC(O)c1ccc(NS(C)(=O)=O)cc1 (centres undefined) [ibutilide],162%
18,CC(C)(C)NCC(O)COc1nsnc1N1CCOCC1 (centres undefined) [Blocarden],244%
19,CC1CCN(CCCC(=O)c2ccc(F)cc2)CC1 [melperone],329%
